Publication PMC10654515

Amino acid sequences for entries named in this document (tags omitted). A change or cut given only in a name is not applied to a line headed by its entry.
UniProt P11308: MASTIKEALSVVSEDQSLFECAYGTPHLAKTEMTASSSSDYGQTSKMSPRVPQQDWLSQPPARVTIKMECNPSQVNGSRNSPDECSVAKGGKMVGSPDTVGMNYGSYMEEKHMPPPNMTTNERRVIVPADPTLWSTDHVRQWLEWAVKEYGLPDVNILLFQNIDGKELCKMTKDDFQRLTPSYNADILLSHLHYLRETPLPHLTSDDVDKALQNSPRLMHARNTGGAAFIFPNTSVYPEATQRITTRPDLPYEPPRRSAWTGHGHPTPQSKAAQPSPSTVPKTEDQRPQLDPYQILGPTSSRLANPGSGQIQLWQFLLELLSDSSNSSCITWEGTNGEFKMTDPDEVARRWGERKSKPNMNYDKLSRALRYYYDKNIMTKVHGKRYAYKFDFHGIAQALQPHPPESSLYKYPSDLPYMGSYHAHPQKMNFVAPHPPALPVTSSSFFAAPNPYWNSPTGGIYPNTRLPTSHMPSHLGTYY
UniProt Q7KZF4: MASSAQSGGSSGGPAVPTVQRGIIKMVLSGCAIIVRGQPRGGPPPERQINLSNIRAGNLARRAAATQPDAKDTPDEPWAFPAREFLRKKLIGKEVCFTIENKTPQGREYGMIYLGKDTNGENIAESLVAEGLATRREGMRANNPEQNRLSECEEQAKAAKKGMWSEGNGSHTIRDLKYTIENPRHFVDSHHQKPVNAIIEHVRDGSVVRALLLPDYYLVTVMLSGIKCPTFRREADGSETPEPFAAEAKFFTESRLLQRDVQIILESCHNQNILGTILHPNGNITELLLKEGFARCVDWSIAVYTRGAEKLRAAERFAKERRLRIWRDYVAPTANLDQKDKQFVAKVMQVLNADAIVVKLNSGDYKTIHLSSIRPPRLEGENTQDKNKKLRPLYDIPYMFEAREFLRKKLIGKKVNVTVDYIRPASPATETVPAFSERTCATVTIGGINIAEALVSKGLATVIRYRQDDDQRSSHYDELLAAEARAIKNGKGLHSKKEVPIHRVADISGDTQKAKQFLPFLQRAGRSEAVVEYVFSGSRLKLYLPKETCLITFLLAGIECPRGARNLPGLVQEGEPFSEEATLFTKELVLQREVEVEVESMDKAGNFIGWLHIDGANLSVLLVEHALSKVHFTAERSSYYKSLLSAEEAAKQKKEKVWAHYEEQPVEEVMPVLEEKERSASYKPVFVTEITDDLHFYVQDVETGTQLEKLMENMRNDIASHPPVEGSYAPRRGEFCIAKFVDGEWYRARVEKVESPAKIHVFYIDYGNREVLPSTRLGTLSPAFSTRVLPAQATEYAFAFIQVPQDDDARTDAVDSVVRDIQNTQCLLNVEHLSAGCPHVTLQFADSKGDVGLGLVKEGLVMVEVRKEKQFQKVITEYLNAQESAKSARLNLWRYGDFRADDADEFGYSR

Target: HA-ERG (N-terminal HA-tagged ΔN-ERG) (human) (UniProt P11308)
Assay: co-IP; co-expressed tagged proteins in HEK293(T) cells; anti-HA agarose beads, 4 h at 4 °C; IP buffer 50 mM Tris-HCl pH 7.5, 1% Triton X-100, 50 mM NaCl, 0.1 mM EDTA; Western blot

Row | binding | Substance
1 | binds | TD domain SND1 (V5-tagged) (from UniProt Q7KZF4 729-787) (domain or fragment)
2 | binds | full-length SND1, epitope-tagged (SND1-V5) (from UniProt Q7KZF4 1-910)

No constants are given. Whether binding was seen depends on the method and setting. Binding seen in cells or lysates may run through a third protein. A result given as binding can be weak or reduced; the word gives no strength.
